PMC10758121, “Miconazole-like Scaffold is a Promising Lead for Naegleria fowleri-Specific CYP51 Inhibitors” (Journal of Medicinal Chemistry, 2023)
Read-outs that look alike come from different tables or passages of the source.

Experiments:
[1] = test system: N. fowleri European KUL strain; conditions: read-out: anti-Naegleria potency (EC50); cited from earlier work
[2] = test system: N. fowleri European KUL strain; experiment: Naegleria cell-based assay, dose–response (CellTiter-Glo viability, 48 h)

Clc1ccc(COC(Cn2ccnc2)c2ccc(Cl)cc2Cl)c(Cl)c1 (stereo not drawn) [Compound 1, miconazole]
EC50 [1]: < 2000 nM | EC50 ([2]; concentration for 50% growth inhibition from dose–response curves, triplicate, axenically cultured N. fowleri trophozoites): 1400 ± 20 nM | EC50 ([2]; supplement CSV): 2000 ± 40 nM
